Experimental data as given in PubChem BioAssay AID2685 (National Center for Advancing Translational Sciences (NCATS), 2010).
The list shows a part of the results. Shown are side measurements of this screen, not its main read-out; they come without a call. Most of these compounds were active or inconclusive in the main read-out, so they are no random draw. Words in brackets tell the shape of the fitted curve; partial curves, single points and poor fits give uncertain potencies.

Experiment: qHTS Assay for Lipid Storage Modulators in Drosophila S3 Cells;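 on cell number change: cells counted by Cell Tracker Red CMTPX staining in the red channel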
Details: BODIPY lipid droplet fluorescence, 18-24 h; for cell number change: measured here: cell count max response, cells fed with added oleic acid
How it was run: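 Drosophila S3 cells loaded with oleic acid (400 uM, as added) and compounds at several concentrations; lipid droplets imaged by 488-nm laser-scanning cytometry, 500–530 nm intensity and object ratio to cell channel. Percent activity normalized to 20 uM Triacsin C.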

[1] = measured here: cell number channel AC50, cells fed with added oleic acid
[2] = measured here: lipid fluorescence (Fed channel) AC50, cells fed with added oleic acid

Row | Structure (SMILES) | cell number change [%] | AC50 [1] | AC50 [2]
1 | Cc1nn(C)cc1C(C(=O)NC1CCCCC1)N(Cc1ccc(F)cc1)C(=O)c1cnccn1 (stereo not given) | 33.1 | 29100 nM [rising, single point] | 
2 | CC(=O)Nc1ccccc1N(CC(O)Cn1c2ccccc2c2ccccc21)S(=O)(=O)c1ccc(C)cc1 (stereo not given) | 0.628 |  | 6510 nM [falling, single point]
3 | O=C(Nc1ccccc1)N1CCn2c1nc1ccccc12 | 9.92 |  | 5.8 nM [rising, full curve, poor fit]
4 | Cc1ccc(S(=O)(=O)N2[C@@H](c3ccc(Cl)cc3)C(C(=O)O)=CC[C@H]2c2ccc(Cl)cc2)cc1 | -45.6 | 25900 nM [falling, partial curve, poor fit] | 
5 | COc1ccc(/C=N/N2C(=O)CN(C(=O)c3ccccc3)C2c2ccc(OC)cc2)cc1 (stereo not given) | 22.6 |  | 
6 | CCc1nnc(NS(=O)(=O)c2ccc(NC(=O)Nc3ccc(OC)cc3)cc2)s1 | 2.33 |  | 3260 nM [rising, single point]
7 | C=CCN(c1ccccc1)S(=O)(=O)c1cccc(C(=O)NCc2ccncc2)c1 |  | 1840 nM [rising, partial curve] | 2910 nM [rising, partial curve, poor fit]
8 | CC(C)CCn1c(=O)c2ccccc2n2c(CN3CCOCC3)nnc12 | -1.81 | 411 nM [rising, full curve, poor fit] | 920 nM [rising, full curve, poor fit]
9 | O=C(O)c1ccc(Cl)cc1Nc1nc2cc(Cl)ccc2o1 | 21.8 |  | 82 nM [rising, partial curve, poor fit]
10 | O=C(NCC1CCCO1)c1ccc2c(=O)n(Cc3ccco3)c(SCC(=O)N3CCCC3)nc2c1 (stereo not given) | -21.9 |  | 
11 | COc1ccc(C(=O)N2CCN(c3cccc(C)c3C)CC2)cc1S(=O)(=O)NC1CC1 |  | 2310 nM [rising, single point] | 
12 | CCCCOc1ccc(CSCCN)cc1Cl | 2.46 |  | 6510 nM [rising, single point]
13 | O=C(Nc1cccc(NC(=O)c2ccccc2)n1)c1ccccc1 | 10.9 |  | 
14 | CC(Sc1ncccn1)C(=O)NC1CCCC1 (stereo not given) | -1.75 |  | 13000 nM [rising, partial curve]
15 | OC(CNCc1ccccc1F)COc1cccc2ccccc12 (stereo not given) | 18.3 |  | 
16 | Cc1cccc(OCC(=O)OCC(=O)c2c(N)n(C)c(=O)n(C)c2=O)c1C | -50.5 | 23100 nM [falling, single point] | 58 nM [falling, full curve, poor fit]
17 | CCCN(C(=O)CSCC(=O)Nc1ccc(OC)cc1)c1c(N)n(Cc2ccccc2)c(=O)[nH]c1=O |  |  | 1840 nM [rising, partial curve]

Some of these compounds in order of formula weight, largest number first:
Row | Structure (SMILES) | cell number change [%] | AC50 [1] | AC50 [2]
17 | CCCN(C(=O)CSCC(=O)Nc1ccc(OC)cc1)c1c(N)n(Cc2ccccc2)c(=O)[nH]c1=O |  |  | 1840 nM [rising, partial curve]
11 | COc1ccc(C(=O)N2CCN(c3cccc(C)c3C)CC2)cc1S(=O)(=O)NC1CC1 |  | 2310 nM [rising, single point] | 
16 | Cc1cccc(OCC(=O)OCC(=O)c2c(N)n(C)c(=O)n(C)c2=O)c1C | -50.5 | 23100 nM [falling, single point] | 58 nM [falling, full curve, poor fit]
